Binding signal data for 42 sequences are collected here from PMC7819943, “Rice protein-binding microarrays: a tool to detect cis-acting elements near promoter regions in rice”.

This is one part of the list.

The target in the assay is T1, OsSMF1 (Oryza sativa, UniProt Q6ZLB0 1-436).
T1 sequence: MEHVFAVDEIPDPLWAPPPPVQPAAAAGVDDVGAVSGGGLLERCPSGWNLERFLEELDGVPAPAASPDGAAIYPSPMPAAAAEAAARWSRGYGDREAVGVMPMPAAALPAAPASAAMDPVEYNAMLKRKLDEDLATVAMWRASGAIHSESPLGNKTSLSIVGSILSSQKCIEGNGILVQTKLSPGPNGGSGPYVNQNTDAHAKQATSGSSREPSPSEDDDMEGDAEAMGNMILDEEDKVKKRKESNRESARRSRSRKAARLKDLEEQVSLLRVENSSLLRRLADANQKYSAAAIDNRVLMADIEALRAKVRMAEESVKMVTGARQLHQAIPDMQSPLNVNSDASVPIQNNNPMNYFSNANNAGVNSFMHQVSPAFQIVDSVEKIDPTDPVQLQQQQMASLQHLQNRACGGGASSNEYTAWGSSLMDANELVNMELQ
As to the kind of experiment: protein-binding microarray (RPBM); PBS, 2% BSA, 51.3 ng/ul salmon testes DNA, 50 uM zinc acetate, 200 nM TF, 25 C, 1 h; high values mean tight binding. To be noted: protein: recombinant; tags: N-terminal polyhistidine and DsRed monomer fusion (pET32a); chain copies: 2; label: CyDye5-dUTP incorporated in the synthesized complementary strand; 3' TTTTT single-stranded linker to array surface; dsDNA, one strand shown. In a few lines:
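An Axon 4000B scanner gave the binding signal as per-feature fluorescence intensity in arbitrary units. This followed washing of a custom Agilent array that had been incubated for 1 h at 25 °C with 200 nM protein in PBS, 2% BSA, salmon testes DNA and 50 µM zinc acetate. The proteins were transcription factors fused at the N-terminus to polyhistidine and DsRed, expressed in E. coli BL21-CodonPlus and purified on Ni–NTA.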
As for “TGTGATCTTCTGTGACGAATTCCTCGTGACGACGGTGCTACGGAGTCACCTAGTGCAG”, the binding signal is 4220 fluorescence intensity (a.u.).

Regarding “TTTGTTGTGATATGATAGGATTAGTTTTCATCTCTATCTTCGGAGTCACCTAGTGCAG”, the binding signal was 3290 fluorescence intensity (a.u.).

Turning to “AAATGTTATGAGTACGATGACACATTAAAACACAGTCATTCGGAGTCACCTAGTGCAG”, the binding signal is 4650 fluorescence intensity (a.u.).

For “ACAAACCAACCAACCCTCCTCGCCGCGGCCGCCGCCACCGCGGAGTCACCTAGTGCAG”, the binding signal is 3400 fluorescence intensity (a.u.).

Regarding “TTCTGATTACGCGGCGAAACCGCTCGCGCCATGGCGGTTGCGGAGTCACCTAGTGCAG”, the binding signal was 4380 fluorescence intensity (a.u.).

With “GTGTCTTGTGGGCATCGCTTTCATCACTGCCCCGTCACGTCGGAGTCACCTAGTGCAG”, the binding signal was 8640 fluorescence intensity (a.u.).

For “CGCCCAGATCGGCGTGGCGGACGGAAACCCTAACCCTATGCGGAGTCACCTAGTGCAG”, the binding signal was 3670 fluorescence intensity (a.u.).

Regarding “TGGAGATCTCACGCGACCATTTGCCGGTGAGGTCGGCTGCCGGAGTCACCTAGTGCAG”, the binding signal was 3800 fluorescence intensity (a.u.).

As to “ATGGCCCATATTGCCTGGGAAGGTGACACTATCACAGCGGCGGAGTCACCTAGTGCAG”, the binding signal is 4830 fluorescence intensity (a.u.).

Take “ACAAGATGGTCTATCATTTTCGCACATGACACATGTATACCGGAGTCACCTAGTGCAG”: the binding signal was 3820 fluorescence intensity (a.u.).

On to “TTGATGTCTTCTTGTTGATTCATGATGTGAGCAATGGTCGCGGAGTCACCTAGTGCAG”, for which the binding signal was 4000 fluorescence intensity (a.u.).

For the sequence “ATACTAAGCAAATACATGATGATGTGGCTATATGTGAAGGCGGAGTCACCTAGTGCAG”, the binding signal is 5730 fluorescence intensity (a.u.).

As to “CGTGCCACCATCGGAGAGCCACGCTGGATCCACGTGCCGCCGGAGTCACCTAGTGCAG”, the binding signal was 7650 fluorescence intensity (a.u.).

Turning to “TAGCCATAATCTGCTGTTGCGTCGGCCTCGTCATAGCCGCCGGAGTCACCTAGTGCAG”, the binding signal is 5270 fluorescence intensity (a.u.).

As for “TAAAGTTTGACATGCAAAGATGCTACATCATCATCCACGGCGGAGTCACCTAGTGCAG”, the binding signal is 5040 fluorescence intensity (a.u.).

On to “GATGCGATCATGCCAAATCTATCCAACGGCTGGTGTATCTCGGAGTCACCTAGTGCAG”, for which the binding signal is 3300 fluorescence intensity (a.u.).

In the case of “TTAAGCTGCGGCCTGCGGCTTTGACTCGTCCCAATAGGCGCGGAGTCACCTAGTGCAG”, the binding signal was 25800 fluorescence intensity (a.u.).

For “GAGAGCACCGGCGCGGGGTCGGGGAGGGAGAGGTGCGCGACGGAGTCACCTAGTGCAG”, the binding signal is 3380 fluorescence intensity (a.u.).

For the sequence “AGGGCTGCGTCAGGGCAGGCGAAGGGTTTGGAATCTAAGGCGGAGTCACCTAGTGCAG”, the binding signal was 3830 fluorescence intensity (a.u.).

Consider “TTACCAAACCAATACAATCTGTACAATCTTAACTTATGAACGGAGTCACCTAGTGCAG”, for which the binding signal was 3280 fluorescence intensity (a.u.).

For the sequence “CTGATCCACCACAGCACATTGGCCTCTCATGAGATCAGCTCGGAGTCACCTAGTGCAG”, the binding signal was 3600 fluorescence intensity (a.u.).

“ATACGGCACCATTTACGTGTATATGTGTCGTACATGCATACGGAGTCACCTAGTGCAG”: the binding signal was 3470 fluorescence intensity (a.u.).

On to “CCGGTAGAGGCCGGGCCAGCCTGTCTGACGTCACACTAGCCGGAGTCACCTAGTGCAG”, for which the binding signal is 17800 fluorescence intensity (a.u.).

With “TGAGATTGGAGTGTACCTATCACTGCAACCAACTTTGCTACGGAGTCACCTAGTGCAG”, the binding signal was 3350 fluorescence intensity (a.u.).

Regarding “CCAACGTCAGAGGGGAGCTCCCCGTCAGGTTCCTCCAGGTCGGAGTCACCTAGTGCAG”, the binding signal is 4960 fluorescence intensity (a.u.).

For the sequence “CGACGAGTTCCGGCCGGACCGGTTCGCGAACGGCGTGGCGCGGAGTCACCTAGTGCAG”, the binding signal was 3960 fluorescence intensity (a.u.).

As for “TTATTTTAGTGCCACGTAAGCGACACGTCGATGCCACATGCGGAGTCACCTAGTGCAG”, the binding signal was 23000 fluorescence intensity (a.u.).

Turning to “CTATATTGTATGTGCGCACGTGTATATAAACATCTGTGTTCGGAGTCACCTAGTGCAG”, the binding signal was 9100 fluorescence intensity (a.u.).

Take “TGTAGGTATAAGAGTGAGTTGGTGAATTATAGGGTAGACTCGGAGTCACCTAGTGCAG”: the binding signal was 7410 fluorescence intensity (a.u.).

In the case of “AGAAATAAAGAGTGAGGCCGGGGTGAAGGCCACGTGCGTACGGAGTCACCTAGTGCAG”, the binding signal was 3630 fluorescence intensity (a.u.).

As to “GTCGGTCCTTGAACTTGAAGCGTGGTGTCGCTTAGATCCACGGAGTCACCTAGTGCAG”, the binding signal was 4620 fluorescence intensity (a.u.).

As for “TATATACTCTCTTCGTTTCAAAATGTTTGACGCCGTTAACCGGAGTCACCTAGTGCAG”, the binding signal was 3670 fluorescence intensity (a.u.).

As for “ATTTAAATGACGGTTTCGTCCTACGTGGTACATTGACCCGCGGAGTCACCTAGTGCAG”, the binding signal is 10600 fluorescence intensity (a.u.).

As for “TTCTTTGGTCCAACGTAGTGACGCTTGCAGTGTTTACAGTCGGAGTCACCTAGTGCAG”, the binding signal is 4410 fluorescence intensity (a.u.).

Turning to “CCATCCTGCATCCTCCCATGACCACCCGCCACGTCTCGCCCGGAGTCACCTAGTGCAG”, the binding signal is 7730 fluorescence intensity (a.u.).

As to “TAAGTGCTACGTCAATGCCACGTGACACGAAAACTTAGTTCGGAGTCACCTAGTGCAG”, the binding signal is 13300 fluorescence intensity (a.u.).

With “CACCAAGACACGCCAGCTTCTTCCTCTTCTCCTCCTCCTTCGGAGTCACCTAGTGCAG”, the binding signal was 4370 fluorescence intensity (a.u.).

For “GTACCAATTTAATTTATGTATCAATAAGAACATATCATGTCGGAGTCACCTAGTGCAG”, the binding signal is 4640 fluorescence intensity (a.u.).

Consider “AGGCTGGGTTGGTTGCCTAGATGATCGTCATCAGCTAGAACGGAGTCACCTAGTGCAG”, for which the binding signal is 5050 fluorescence intensity (a.u.).

Regarding “GCAAACAAATACAACCTCACATGTTACACGTAGCAAACCGCGGAGTCACCTAGTGCAG”, the binding signal was 5800 fluorescence intensity (a.u.).

For “CCTAGGTTCACGTGGACGTGGACGTTTACGCGTGTGTTGTCGGAGTCACCTAGTGCAG”, the binding signal is 4970 fluorescence intensity (a.u.).

For “CAGCAGGAGGGGAGGGTGGTGAGTCAGGTGGCAATCCGTGCGGAGTCACCTAGTGCAG”, the binding signal is 13900 fluorescence intensity (a.u.).
